Experimental data reported in the supplement of paper PMC11006884.
This is a selection; strong and weak results do not stand in their true shares.

Protein sequences, listed by entry. Tags and fused reporters are not part of them. Lines headed by an entry give the natural chain unless they say otherwise; changes in a name come on top.
UniProt Q9UBW7: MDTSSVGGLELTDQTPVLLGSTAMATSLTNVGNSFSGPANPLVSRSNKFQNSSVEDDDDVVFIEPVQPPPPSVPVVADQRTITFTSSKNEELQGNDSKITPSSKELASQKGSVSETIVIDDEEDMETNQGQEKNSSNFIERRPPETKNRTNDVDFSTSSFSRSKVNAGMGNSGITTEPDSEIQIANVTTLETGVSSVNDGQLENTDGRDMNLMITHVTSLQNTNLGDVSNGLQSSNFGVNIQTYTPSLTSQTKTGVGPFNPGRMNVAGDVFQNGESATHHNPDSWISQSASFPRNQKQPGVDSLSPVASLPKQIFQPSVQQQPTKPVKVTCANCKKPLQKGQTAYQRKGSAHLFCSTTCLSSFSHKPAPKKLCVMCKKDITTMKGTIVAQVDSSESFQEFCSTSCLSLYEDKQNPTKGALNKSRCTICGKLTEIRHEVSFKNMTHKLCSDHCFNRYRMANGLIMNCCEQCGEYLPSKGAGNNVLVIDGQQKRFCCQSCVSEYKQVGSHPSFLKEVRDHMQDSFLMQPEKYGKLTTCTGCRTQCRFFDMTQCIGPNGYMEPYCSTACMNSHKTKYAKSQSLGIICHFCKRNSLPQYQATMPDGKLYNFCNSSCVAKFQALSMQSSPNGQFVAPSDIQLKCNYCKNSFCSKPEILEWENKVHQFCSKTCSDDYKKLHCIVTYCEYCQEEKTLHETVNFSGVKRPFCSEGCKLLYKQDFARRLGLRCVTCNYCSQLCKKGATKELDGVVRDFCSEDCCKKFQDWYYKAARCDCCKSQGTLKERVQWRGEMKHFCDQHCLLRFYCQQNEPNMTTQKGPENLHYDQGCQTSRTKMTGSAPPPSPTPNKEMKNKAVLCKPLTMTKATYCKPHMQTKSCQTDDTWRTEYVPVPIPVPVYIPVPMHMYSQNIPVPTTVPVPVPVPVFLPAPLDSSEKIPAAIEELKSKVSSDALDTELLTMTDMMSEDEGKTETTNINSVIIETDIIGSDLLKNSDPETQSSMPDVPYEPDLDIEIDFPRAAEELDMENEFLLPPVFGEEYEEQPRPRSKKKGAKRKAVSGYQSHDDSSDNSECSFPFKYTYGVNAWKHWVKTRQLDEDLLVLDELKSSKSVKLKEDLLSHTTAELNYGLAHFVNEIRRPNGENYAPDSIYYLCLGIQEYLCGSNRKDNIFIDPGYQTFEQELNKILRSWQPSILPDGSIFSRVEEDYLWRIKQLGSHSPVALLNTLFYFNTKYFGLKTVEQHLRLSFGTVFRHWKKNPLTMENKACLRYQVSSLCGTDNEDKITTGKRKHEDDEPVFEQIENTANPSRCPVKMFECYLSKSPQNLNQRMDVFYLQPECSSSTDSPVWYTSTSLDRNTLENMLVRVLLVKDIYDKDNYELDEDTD
UniProt Q9NZJ9: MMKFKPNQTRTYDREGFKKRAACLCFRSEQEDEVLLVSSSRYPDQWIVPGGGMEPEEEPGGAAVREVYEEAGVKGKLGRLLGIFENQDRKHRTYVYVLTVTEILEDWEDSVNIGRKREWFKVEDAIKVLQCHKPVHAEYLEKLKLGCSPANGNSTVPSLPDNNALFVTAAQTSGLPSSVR
UniProt Q9UBW8: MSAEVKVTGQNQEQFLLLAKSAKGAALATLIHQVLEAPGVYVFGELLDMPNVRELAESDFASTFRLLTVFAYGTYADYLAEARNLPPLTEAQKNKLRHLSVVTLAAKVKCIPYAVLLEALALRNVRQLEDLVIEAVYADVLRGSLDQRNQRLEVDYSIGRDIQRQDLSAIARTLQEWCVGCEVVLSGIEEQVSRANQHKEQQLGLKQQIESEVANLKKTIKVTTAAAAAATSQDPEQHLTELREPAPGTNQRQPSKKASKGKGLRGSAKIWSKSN
UniProt Q9NY33: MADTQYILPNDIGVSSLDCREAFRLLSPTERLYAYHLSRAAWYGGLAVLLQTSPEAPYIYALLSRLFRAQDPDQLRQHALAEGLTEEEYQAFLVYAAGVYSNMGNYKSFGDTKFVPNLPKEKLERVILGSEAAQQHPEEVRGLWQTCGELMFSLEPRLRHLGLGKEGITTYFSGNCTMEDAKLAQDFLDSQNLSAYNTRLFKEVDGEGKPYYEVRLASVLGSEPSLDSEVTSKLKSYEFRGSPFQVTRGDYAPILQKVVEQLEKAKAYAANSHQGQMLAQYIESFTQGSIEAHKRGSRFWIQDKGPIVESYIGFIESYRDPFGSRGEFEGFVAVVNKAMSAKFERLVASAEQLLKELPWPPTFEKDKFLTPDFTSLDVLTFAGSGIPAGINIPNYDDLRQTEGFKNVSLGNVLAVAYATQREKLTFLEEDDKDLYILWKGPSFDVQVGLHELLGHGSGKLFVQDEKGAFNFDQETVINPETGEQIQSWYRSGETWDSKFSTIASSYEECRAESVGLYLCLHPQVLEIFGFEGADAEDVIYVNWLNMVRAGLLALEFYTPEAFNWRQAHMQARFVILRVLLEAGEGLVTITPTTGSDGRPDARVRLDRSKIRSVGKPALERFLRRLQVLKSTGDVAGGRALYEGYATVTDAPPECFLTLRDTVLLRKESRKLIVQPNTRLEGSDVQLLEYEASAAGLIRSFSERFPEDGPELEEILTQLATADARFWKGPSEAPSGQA
UniProt Q9NX63: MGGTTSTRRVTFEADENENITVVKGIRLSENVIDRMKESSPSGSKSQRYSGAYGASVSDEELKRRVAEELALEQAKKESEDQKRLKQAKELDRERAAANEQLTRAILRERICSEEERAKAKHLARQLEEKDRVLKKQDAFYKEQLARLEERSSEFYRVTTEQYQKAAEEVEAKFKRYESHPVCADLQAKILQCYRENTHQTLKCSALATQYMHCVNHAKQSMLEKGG
UniProt Q9P2E9: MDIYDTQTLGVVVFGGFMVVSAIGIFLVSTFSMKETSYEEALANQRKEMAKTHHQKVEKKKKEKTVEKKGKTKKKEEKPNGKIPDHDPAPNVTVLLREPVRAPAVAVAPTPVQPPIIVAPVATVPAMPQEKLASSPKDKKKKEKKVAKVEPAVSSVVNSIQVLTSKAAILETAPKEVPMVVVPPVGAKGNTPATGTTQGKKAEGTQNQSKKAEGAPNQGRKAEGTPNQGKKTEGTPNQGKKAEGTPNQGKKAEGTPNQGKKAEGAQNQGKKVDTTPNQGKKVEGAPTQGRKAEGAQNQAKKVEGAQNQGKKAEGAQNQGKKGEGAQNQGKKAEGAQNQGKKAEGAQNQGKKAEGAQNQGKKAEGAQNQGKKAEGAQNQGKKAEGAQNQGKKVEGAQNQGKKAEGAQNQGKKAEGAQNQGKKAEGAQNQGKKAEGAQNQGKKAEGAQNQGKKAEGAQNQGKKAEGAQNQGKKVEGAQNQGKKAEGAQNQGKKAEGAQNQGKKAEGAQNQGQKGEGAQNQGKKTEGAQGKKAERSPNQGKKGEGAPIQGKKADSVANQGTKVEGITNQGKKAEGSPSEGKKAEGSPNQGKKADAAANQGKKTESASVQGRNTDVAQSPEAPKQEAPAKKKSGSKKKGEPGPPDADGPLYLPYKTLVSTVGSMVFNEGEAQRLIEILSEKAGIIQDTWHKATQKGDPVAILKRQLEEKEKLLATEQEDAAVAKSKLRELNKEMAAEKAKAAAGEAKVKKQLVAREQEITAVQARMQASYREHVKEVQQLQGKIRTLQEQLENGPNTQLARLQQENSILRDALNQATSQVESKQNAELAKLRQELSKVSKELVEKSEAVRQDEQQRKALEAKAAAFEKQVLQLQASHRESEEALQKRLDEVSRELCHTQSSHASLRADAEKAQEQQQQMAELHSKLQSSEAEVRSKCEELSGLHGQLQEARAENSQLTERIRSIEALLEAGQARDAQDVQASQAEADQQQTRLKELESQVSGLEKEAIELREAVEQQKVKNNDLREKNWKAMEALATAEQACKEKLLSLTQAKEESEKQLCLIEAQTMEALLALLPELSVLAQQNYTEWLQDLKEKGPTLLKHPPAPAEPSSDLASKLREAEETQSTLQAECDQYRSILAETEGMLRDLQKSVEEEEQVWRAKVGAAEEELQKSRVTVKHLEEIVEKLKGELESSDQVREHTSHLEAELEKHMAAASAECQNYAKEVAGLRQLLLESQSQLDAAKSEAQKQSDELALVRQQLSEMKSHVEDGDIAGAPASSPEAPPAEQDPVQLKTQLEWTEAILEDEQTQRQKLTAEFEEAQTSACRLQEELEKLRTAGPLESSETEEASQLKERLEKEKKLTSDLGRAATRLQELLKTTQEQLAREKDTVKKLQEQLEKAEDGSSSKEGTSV
UniProt Q9UBF6, whole entry: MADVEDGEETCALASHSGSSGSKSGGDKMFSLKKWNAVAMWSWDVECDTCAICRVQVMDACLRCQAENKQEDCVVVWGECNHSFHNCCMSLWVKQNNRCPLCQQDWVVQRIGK
UniProt Q9P2I0: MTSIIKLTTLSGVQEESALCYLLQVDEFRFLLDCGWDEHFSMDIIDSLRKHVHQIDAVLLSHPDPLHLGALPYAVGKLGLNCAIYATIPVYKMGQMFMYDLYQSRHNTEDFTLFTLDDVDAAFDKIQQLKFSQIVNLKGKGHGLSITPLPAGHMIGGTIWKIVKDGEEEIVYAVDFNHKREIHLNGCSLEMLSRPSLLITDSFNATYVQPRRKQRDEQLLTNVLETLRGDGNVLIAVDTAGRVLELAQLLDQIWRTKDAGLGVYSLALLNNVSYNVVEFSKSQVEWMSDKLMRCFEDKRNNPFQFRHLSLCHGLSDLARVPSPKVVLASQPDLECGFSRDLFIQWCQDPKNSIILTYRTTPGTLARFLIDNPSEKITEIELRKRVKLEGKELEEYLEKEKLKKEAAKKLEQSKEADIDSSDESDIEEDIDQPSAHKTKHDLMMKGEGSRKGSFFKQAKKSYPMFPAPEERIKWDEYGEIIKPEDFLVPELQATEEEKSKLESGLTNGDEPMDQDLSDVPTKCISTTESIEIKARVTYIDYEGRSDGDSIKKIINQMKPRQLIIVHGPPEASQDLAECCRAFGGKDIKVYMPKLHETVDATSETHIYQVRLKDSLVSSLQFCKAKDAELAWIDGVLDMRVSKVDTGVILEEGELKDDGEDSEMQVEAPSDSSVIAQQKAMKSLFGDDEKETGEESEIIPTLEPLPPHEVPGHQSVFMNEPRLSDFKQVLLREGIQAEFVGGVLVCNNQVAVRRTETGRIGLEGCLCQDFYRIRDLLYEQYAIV
UniProt Q9NW64: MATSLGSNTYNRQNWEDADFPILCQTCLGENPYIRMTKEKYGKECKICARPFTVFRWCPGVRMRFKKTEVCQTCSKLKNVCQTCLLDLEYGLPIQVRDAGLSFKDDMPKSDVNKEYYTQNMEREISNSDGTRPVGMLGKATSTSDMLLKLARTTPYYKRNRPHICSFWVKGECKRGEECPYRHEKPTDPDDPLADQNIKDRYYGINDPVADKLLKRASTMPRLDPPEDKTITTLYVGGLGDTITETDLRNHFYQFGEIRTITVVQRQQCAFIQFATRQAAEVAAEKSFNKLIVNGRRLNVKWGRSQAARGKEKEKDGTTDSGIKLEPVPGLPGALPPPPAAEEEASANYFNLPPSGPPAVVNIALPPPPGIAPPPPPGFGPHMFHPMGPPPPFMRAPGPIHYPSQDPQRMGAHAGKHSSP
UniProt Q9P253: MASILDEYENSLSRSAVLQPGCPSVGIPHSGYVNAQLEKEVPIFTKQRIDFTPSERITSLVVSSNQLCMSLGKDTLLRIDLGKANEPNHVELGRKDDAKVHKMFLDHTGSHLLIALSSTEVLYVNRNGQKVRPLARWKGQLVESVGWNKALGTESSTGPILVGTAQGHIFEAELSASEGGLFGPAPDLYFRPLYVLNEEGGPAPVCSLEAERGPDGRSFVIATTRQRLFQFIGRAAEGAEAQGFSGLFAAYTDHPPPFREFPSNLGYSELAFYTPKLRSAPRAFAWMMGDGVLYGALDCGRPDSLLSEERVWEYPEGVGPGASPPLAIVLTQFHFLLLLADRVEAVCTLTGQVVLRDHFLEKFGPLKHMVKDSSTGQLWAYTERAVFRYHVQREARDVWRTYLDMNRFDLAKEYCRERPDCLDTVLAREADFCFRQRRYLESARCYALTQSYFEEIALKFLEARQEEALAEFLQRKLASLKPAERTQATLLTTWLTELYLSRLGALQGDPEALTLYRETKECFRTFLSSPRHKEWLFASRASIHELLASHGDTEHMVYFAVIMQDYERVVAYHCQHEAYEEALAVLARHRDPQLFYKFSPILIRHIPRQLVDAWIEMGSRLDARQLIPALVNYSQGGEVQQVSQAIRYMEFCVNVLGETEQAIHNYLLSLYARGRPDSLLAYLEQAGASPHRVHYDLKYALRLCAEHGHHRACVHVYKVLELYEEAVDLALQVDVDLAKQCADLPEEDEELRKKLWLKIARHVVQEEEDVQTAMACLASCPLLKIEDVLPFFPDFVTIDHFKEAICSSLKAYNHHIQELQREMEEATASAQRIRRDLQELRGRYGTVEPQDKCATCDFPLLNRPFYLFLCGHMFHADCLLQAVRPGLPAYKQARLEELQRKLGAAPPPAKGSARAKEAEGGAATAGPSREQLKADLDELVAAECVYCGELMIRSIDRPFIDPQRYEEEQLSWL

Compound: COC(=O)C#Cc1ccccc1 [methyl 3-phenylpropiolate]
Assay: log2 ratio of iodoacetamide-alkyne labeling of the cysteine site, DMSO over compound (competition); higher = stronger covalent engagement of the cysteine by the compound, active = 1 or more
Conditions: 500 µM; treatment time 1 h; system: HEK293T cell lysate
Outline: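 Three replicates, each with duplicate channels, were prepared from HEK293T lysate (2 mg/mL) treated with vehicle or electrophile at 500 µM for 1 h at ambient temperature. Iodoacetamide alkyne was then applied for 1 h, and samples were clicked to sCIP-TMT reagents, pooled, trypsin-digested overnight at 37 °C, enriched on streptavidin, acid-eluted and analysed on Orbitrap Eclipse LC-MS/MS with FAIMS, with FragPipe quantification. The log2 competition ratio per cysteine is the mean control-channel divided by the mean compound-channel reporter intensity. Cysteines quantified in only one replicate were left out.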

Target	log2 ratio of iodoacetamide-alkyne labeling
ZMYM2 C852 (UniProt Q9UBW7)	inactive: 0.581
RNF181 C10 (UniProt Q9P0P0)	inactive: 0.0512
DNMT3B C651 (UniProt Q9UBC3)	inactive: 0.165
NUDT4 C147 (UniProt Q9NZJ9)	inactive: 0.326
RBM27 C776 (UniProt Q9P2N5)	inactive: 0.232
WWOX C382 (UniProt Q9NZC7)	inactive: 0.00878
COPS7A C110 (UniProt Q9UBW8)	inactive: 0.0698
FAM120C C14 (UniProt Q9NX05)	inactive: 0.327
ARMCX3 C52 (UniProt Q9UH62)	inactive: 0.474
DPP3 C176 (UniProt Q9NY33)	inactive: 0.182
CHCHD3 C112 (UniProt Q9NX63)	inactive: 0.0891
RRBP1 C933 (UniProt Q9P2E9)	inactive: 0.114
RRBP1 C892 (UniProt Q9P2E9)	inactive: 0.291
RNF7 C11 (UniProt Q9UBF6)	inactive: 0.556
CPSF2 C82 (UniProt Q9P2I0)	inactive: 0.0445
GNL3L C213 (UniProt Q9NVN8)	inactive: 0.538
UniProt Q9NW64_C84	inactive: -0.264
MRPS18A C186 (UniProt Q9NVS2)	inactive: 0.257
SLAIN2 C306 (UniProt Q9P270)	inactive: 0.43
UTP6 C310 (UniProt Q9NYH9)	inactive: 0.0486
VPS18 C22 (UniProt Q9P253)	inactive: 0.542

Another view of some results above:
Target,log2 ratio of iodoacetamide-alkyne labeling
NUDT4 C147 (UniProt Q9NZJ9),inactive: 0.326
RBM27 C776 (UniProt Q9P2N5),inactive: 0.232
